Test results reported in PubChem BioAssay AID1508600 (Functional Genomics Laboratory (NCATS/FGL), 2020).
Out of some 53,000 sequences screened, about 3,700 (7%) were called active.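 The calls were made as follows: active = gene knockdowns whose robust z-score for IL-1 alpha signal is at least 2 or at most -2, so actives lie on both sides; inactive = the rest.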 Some of the results follow.

Assay: Components of the Cytosolic LPS Sensing Pathway: Gene Identification via Genome-wide siRNA Screen;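 also: robust z of the log signal after scaling to non-targeting control siRNA wells of the plate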
Conditions: RAW264.7 macrophages, IL-1a HTRF, actives lie on both sides, screened at 100 nM (by protocol), cells primed 5 h with Pam3CSK4 first
In short: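 Three distinct siRNAs per gene were tested singly at 100 nM in RAW264.7 macrophages. Following Pam3CSK4 priming and 24 hour LipidA transfection, IL-1a secretion was read by HTRF.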

Q: With UGUCAGUGCAGAAUAGCACTT against Olfr658 as the sequence, how does the z-score read?
A: inactive: -1.17

Q: With CCAUGAUUUACAAUACUACTT against Cebpg as the sequence, how does the z-score read?
A: inactive: -0.89

Q: For GGUAUGUGGCAUUUAUUUGTT against Hif1a, which z-score is on record?
A: inactive: 0.986

Q: For CCUAUGAAUCUUACAGGACTT against Zfp955a, which z-score is on record?
A: inactive: 0.313

Q: For “GGAACUUGGCCUACUUAUGTT against C130071C03Rik”, which z-score is on record?
A: inactive: 0.718

Q: Which z-score does the source give for GGCUGAACAAAGGUAGAGATT against Ccl1 here?
A: inactive: -0.499

Q: With GUUGGAGUUGAGUGAUAUUTT against Krtap3-3 as the sequence, how does the z-score read?
A: inactive: -0.269

Q: Which z-score does the source give for GGUAUAAGGAAGGCCUUCUTT against Olfr186 here?
A: inactive: -1.65

Q: With GCUUCUGUGGGCAACAGUUTT against Cryba1 as the sequence, how does the z-score read?
A: inactive: 0.0577

Q: With GGAAAUCCCACCUGUGCCATT against Col8a1 as the sequence, how does the z-score read?
A: inactive: 0.473

Q: With GGCGAACACUGUUUGAAGCTT against Ercc5 as the sequence, how does the z-score read?
A: inactive: 0.294

Q: For GCUACUUUCUAAGUGCCAUTT against Pdcd4, which z-score is on record?
A: inactive: -0.975

Q: Which z-score does the source give for GGUUCUGUUGUGUGAGGAGTT against Gimap1 here?
A: inactive: -0.824

Q: For GCAAAGGAUUGUUAAACUATT against Manba, which z-score is on record?
A: inactive: 1.49

Q: With GGAUUUGGGCCCAUUUUUGTT against Cntn1 as the sequence, how does the z-score read?
A: inactive: 0.913

Q: Which z-score does the source give for GGUCAUCAACAGCAAAAACTT against Lin37 here?
A: inactive: -1.93

Q: Which z-score does the source give for CAGCUUGUGCUCGAGUAAATT against Gm3579 here?
A: inactive: -1.14

Q: Which z-score does the source give for GGGAGAUGGCGUGACAGAATT against Trappc3 here?
A: inactive: 0.503

Q: Which z-score does the source give for GGACUCAGAAUUUUUUUGUTT against Mllt3 here?
A: inactive: 0.193

Q: Which z-score does the source give for GCAUGUGGUUUCUAUAUAUTT against Sertad4 here?
A: inactive: -0.874

Q: Which z-score does the source give for “GGUGGUGACAGCUGAACAATT against 4732465J04Rik” here?
A: inactive: 0.21

Q: Which z-score does the source give for GGUCGCUUUGGCAUUAUGGTT against Mrpl22 here?
A: inactive: -0.373

Q: For CCAAACCAGAAUGUUAAAATT against Fgf12, which z-score is on record?
A: inactive: -0.391

Q: Which z-score does the source give for “GGCAUCUGUAAGAUGUACGTT against 1700018B24Rik” here?
A: inactive: 1.32

Q: For GUGGUUUCGGUGCUUGGGUTT against Svs3a, which z-score is on record?
A: inactive: -0.516

Q: Which z-score does the source give for GGGUCUAAGAUGCAAACGCTT against Flt3l here?
A: inactive: -0.0742

Q: With UUUAUACUUCCCUGAUUUUTT against Olfr943 as the sequence, how does the z-score read?
A: inactive: -0.409

Q: With GCUGCUCCCUCUAAUAAAATT against Cbr1 as the sequence, how does the z-score read?
A: inactive: -0.913

Q: For “GCUAUGUUUAGGCACAAUATT against C130023O10Rik”, which z-score is on record?
A: inactive: -0.341

Q: With GGAAUAUGAGUUUUCUCAGTT against Zfp68 as the sequence, how does the z-score read?
A: inactive: 0.125

Q: For GCAAAGAUUCAGGCCUGUGTT against Tle6, which z-score is on record?
A: inactive: -0.873

Q: For GGAAACAAGGAAACAACAGTT against Iqcf4, which z-score is on record?
A: inactive: 1.85

Q: For GGGAAGGCAAUUUAAAAAATT against Cfap36, which z-score is on record?
A: inactive: 0.143

Q: Which z-score does the source give for GGGCUUAUUUAAAAAGAAGTT against Foxa1 here?
A: inactive: -0.196

Q: For GGCAAUCAAUUGGUAGGUATT against Gm5089, which z-score is on record?
A: inactive: -0.233

Q: For GGCAAAGCACUGGUUGUGUTT against Sptlc3, which z-score is on record?
A: inactive: 0.286

Q: With GGAUACAGCCUGCCAGUUCTT against Casz1 as the sequence, how does the z-score read?
A: inactive: 0.878

Q: Which z-score does the source give for CCUGGUGCUAUGGACUAAATT against Tectb here?
A: inactive: -1.15

Q: Which z-score does the source give for GGCAAAAAGAUAGGAGCUGTT against Txn1 here?
A: inactive: 0.57

Q: With GGCUGUGGAAAACAGUAGUTT against Psma3 as the sequence, how does the z-score read?
A: inactive: -1.84

Q: For GGUUUUCCCUCCAGAUGAGTT against Mtch1, which z-score is on record?
A: inactive: -0.336

Q: Which z-score does the source give for GCCAAUUGUGUCUAAAUUUTT against Trim30b here?
A: inactive: 1.55

Q: With GCCCAAAGUACAUUUGGUGTT against Dbndd1 as the sequence, how does the z-score read?
A: inactive: 0.748

Q: With CGUAAAAGGACUCUACAAATT against Papss2 as the sequence, how does the z-score read?
A: inactive: 1.19

Q: Which z-score does the source give for GGCGCAUUAUGGAGACUCATT against Cebpe here?
A: inactive: 0.526

Q: For GGACUUUGCGUAUAGCCCUTT against Tulp3, which z-score is on record?
A: inactive: -0.381

Q: Which z-score does the source give for GGAGGAAGAUGGUCAUUCCTT against Tgs1 here?
A: inactive: -1.16

Q: With GCACUUUGCACACUUAUUATT against Iqub as the sequence, how does the z-score read?
A: inactive: 0.532

Q: For CGCAACAGCUAGGAUUUUUTT against Me1, which z-score is on record?
A: inactive: 0.193

Q: For GGCUGUUCGUGCAAGCCUATT against Bahcc1, which z-score is on record?
A: inactive: 0.544

Q: Which z-score does the source give for UGUUGUUUUACCUGUGCCUTT against Gm10283 here?
A: inactive: -1.14

Q: With GGAGAUCCACGAUUUGUUCTT against Adck1 as the sequence, how does the z-score read?
A: inactive: 1.87

Q: Which z-score does the source give for GGUACAGUAUGUGAUUCAATT against Babam2 here?
A: inactive: 0.0103

Q: For GGAUGUAUAACUUUUUCUCTT against Pltp, which z-score is on record?
A: inactive: 0.46

Q: Which z-score does the source give for CGCUAUGGUUUCUCAGCUUTT against Myh4 here?
A: inactive: -0.02

Q: Which z-score does the source give for CCCAAGUUUGUAAAAGAAUTT against Cldnd1 here?
A: inactive: 0.474

Q: With GCUAAGAAUGAGCAUUAUCTT against Npr2 as the sequence, how does the z-score read?
A: inactive: -1.47

Q: For CCUAUUAUUCCAACUUUUGTT against Cercam, which z-score is on record?
A: inactive: -0.0904

Q: Which z-score does the source give for GGAGGCCGUAAUAUCUCCUTT against Krt13 here?
A: inactive: -0.0683

Q: For GGGCAGCAGCAAUUUCUGUTT against Ahcyl1, which z-score is on record?
A: inactive: 1.39

Q: For GGUGAAACGACUGUUAAGUTT against Pde7b, which z-score is on record?
A: inactive: 0.0774

Q: For GGAUCAUGUGUCAGUAACATT against Hmgn2, which z-score is on record?
A: inactive: -0.734

Q: With “GCUCACCUUUCUUGAGAAATT against 4930579C12Rik” as the sequence, how does the z-score read?
A: inactive: -0.179

Q: For GGAUGAGAAGGAGAAAUACTT against Mael, which z-score is on record?
A: inactive: -0.16

Q: With GCUGUAUGGGAAGGGUUACTT against Tsen2 as the sequence, how does the z-score read?
A: inactive: 0.829

Q: With GGAUAUCACUUGCUAUUCCTT against Abraxas2 as the sequence, how does the z-score read?
A: inactive: -0.406

Q: With “GGACCUUACUCAUCUAGCATT against D630004N19Rik” as the sequence, how does the z-score read?
A: inactive: 1.78
